This is one part of the list.

This assay is described as follows: growth inhibition of WT strain, primary screen, mitochondrial fusion inhibitor project, WT and mutant strains, chemical genetic (AID 1362). Also: tested in S. cerevisiae. The note with it: mitochondrial fusion phenotypic screen, at 10 µM.
For `CCOC(=O)N1CCC(Nc2ccc(OC)cc2)CC1`, the inhibition was 20%.

`O=C(OC1CN2CCC1CC2)C1c2ccccc2Oc2ccccc21` (centres undefined): the inhibition was -2.33%.

Take `COc1ccc(C(=O)NCC2(N3CCCCC3)CCCCC2)c(OC)c1OC`: the inhibition is 7.24%.

For the compound `COc1ccc(NC2CCN(CCc3ccccc3)CC2)c(OC)c1`, the inhibition amounted to 2.65%.

Turning to `COc1ccc(NC2CCN(C(=O)OC(C)(C)C)CC2)cc1`, the inhibition is -2.9%.

Take `CN1CCN(CCOC(=O)C(O)(c2ccccc2)c2ccccc2)CC1`: the inhibition stood at 18.6%.

Take `O=C(NCC1(N2CCOCC2)CCCCC1)c1cc(=O)[nH]c2ccccc12`: the inhibition was -0.89%.

On to `O=C(NCC1(N2CCCCC2)CCCCC1)c1cccc([N+](=O)[O-])c1`, for which the inhibition came out at 10.5%.

`N#CC1(Nc2ccccc2)CCN(CCc2ccccc2)CC1`: the inhibition came out at 2.91%.

`COc1ccc(CN(CCCl)CCCl)cc1Cl`: the inhibition came out at 3.22%.

As to `CN(C)c1cccc(C(=O)NCC2(N3CCCCC3)CCCCC2)c1`, the inhibition amounted to 6.79%.

For the compound `CC(C)c1ccc(NC2CCN(C(=O)OC(C)(C)C)CC2)cc1`, the inhibition came out at 4.2%.

In the case of `O=C(OC1CN2CCC1CC2)C1c2ccccc2C=Cc2ccccc21` (centres undefined), the inhibition is -5.49%.

Take `N/C(=N\O)c1c(N)no[n+]1[O-]`: the inhibition amounted to 20.7%.

Regarding `COc1ccc(C(=O)NCC2(N3CCOCC3)CCCCC2)cc1OC`, the inhibition turned out to be 1.7%.

Regarding `c1ccc(CN2CCC(Nc3ccccc3)CC2)cc1`, the inhibition amounted to 22.8%.

For the compound `N#Cc1ccc(C(=O)NCC2(N3CCCCC3)CCCCC2)cc1`, the inhibition was -14.3%.

As for `CN(C)c1ccc(C(=O)NCC2(N3CCCCC3)CCCCC2)cc1`, the inhibition turned out to be 6.44%.

With `CCN1CCC(Nc2cccc(F)c2)CC1`, the inhibition was -1.04%.

For `Fc1ccccc1NC1CCN(Cc2ccccc2)CC1`, the inhibition stood at 2.88%.

For the compound `CCC(CO)(C(=O)OC1CN2CCC1CC2)c1ccccc1` (centres undefined), the inhibition amounted to 6.96%.

As for `COc1cc(OC)cc(C(=O)NCC2(N3CCOCC3)CCCCC2)c1`, the inhibition stood at 25.5%.

As to `CC(C)(C)OC(=O)N1CCC(Nc2ccccc2)CC1`, the inhibition was determined as 21.6%.

Regarding `CCOc1ncccc1C(=O)NCC1(N2CCOCC2)CCCCC1`, the inhibition was -11.6%.

Values taken from PubChem BioAssay AID1362 (SRMLSC, 2008).
